Test results taken from the supplement of paper PMC6411743.
± gives the standard deviation of the averaged measurements. The entries are a selection whose mix differs from that of the whole data set.

Amino acid sequences for entries named in this document (tags omitted). A change or cut given only in a name is not applied to a line headed by its entry.
UniProt P84085: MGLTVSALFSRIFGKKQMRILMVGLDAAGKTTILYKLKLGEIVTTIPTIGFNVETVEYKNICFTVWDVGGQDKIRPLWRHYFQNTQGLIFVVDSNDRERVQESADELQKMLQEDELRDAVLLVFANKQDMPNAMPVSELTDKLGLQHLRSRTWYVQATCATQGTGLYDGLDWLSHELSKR
UniProt P60983, whole entry: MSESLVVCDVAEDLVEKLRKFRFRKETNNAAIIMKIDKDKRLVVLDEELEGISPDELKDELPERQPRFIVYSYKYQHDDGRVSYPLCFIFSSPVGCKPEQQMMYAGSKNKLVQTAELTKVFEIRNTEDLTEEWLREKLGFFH
UniProt P53805: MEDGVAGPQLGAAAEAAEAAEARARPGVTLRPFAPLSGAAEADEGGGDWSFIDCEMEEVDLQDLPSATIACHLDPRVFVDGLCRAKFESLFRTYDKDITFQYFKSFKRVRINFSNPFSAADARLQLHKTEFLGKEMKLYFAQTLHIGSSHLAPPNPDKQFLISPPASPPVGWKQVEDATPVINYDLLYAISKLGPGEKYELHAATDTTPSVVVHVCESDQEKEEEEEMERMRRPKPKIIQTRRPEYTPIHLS
UniProt P60842, whole entry: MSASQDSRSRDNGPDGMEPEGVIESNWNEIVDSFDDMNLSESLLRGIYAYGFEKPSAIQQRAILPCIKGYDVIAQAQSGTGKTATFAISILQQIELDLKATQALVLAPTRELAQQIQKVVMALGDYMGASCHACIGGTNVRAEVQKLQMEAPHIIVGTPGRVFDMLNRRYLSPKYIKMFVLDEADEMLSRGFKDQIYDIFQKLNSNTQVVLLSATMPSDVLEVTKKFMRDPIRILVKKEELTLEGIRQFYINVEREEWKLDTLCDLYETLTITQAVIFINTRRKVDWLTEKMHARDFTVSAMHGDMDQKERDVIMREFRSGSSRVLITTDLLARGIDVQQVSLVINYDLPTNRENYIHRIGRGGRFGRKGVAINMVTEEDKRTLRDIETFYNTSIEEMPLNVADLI
UniProt P62491: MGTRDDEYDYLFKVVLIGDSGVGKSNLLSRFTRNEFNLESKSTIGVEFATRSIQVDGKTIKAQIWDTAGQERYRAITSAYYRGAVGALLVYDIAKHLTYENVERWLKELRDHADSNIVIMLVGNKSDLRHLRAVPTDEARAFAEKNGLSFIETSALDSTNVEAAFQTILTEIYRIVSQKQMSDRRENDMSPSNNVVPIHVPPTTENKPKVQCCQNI
UniProt P63146, whole entry: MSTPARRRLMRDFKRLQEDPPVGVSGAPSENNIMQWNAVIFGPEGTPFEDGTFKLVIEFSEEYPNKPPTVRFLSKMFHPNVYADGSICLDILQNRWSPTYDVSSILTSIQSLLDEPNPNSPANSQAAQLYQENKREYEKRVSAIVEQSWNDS
UniProt P55265: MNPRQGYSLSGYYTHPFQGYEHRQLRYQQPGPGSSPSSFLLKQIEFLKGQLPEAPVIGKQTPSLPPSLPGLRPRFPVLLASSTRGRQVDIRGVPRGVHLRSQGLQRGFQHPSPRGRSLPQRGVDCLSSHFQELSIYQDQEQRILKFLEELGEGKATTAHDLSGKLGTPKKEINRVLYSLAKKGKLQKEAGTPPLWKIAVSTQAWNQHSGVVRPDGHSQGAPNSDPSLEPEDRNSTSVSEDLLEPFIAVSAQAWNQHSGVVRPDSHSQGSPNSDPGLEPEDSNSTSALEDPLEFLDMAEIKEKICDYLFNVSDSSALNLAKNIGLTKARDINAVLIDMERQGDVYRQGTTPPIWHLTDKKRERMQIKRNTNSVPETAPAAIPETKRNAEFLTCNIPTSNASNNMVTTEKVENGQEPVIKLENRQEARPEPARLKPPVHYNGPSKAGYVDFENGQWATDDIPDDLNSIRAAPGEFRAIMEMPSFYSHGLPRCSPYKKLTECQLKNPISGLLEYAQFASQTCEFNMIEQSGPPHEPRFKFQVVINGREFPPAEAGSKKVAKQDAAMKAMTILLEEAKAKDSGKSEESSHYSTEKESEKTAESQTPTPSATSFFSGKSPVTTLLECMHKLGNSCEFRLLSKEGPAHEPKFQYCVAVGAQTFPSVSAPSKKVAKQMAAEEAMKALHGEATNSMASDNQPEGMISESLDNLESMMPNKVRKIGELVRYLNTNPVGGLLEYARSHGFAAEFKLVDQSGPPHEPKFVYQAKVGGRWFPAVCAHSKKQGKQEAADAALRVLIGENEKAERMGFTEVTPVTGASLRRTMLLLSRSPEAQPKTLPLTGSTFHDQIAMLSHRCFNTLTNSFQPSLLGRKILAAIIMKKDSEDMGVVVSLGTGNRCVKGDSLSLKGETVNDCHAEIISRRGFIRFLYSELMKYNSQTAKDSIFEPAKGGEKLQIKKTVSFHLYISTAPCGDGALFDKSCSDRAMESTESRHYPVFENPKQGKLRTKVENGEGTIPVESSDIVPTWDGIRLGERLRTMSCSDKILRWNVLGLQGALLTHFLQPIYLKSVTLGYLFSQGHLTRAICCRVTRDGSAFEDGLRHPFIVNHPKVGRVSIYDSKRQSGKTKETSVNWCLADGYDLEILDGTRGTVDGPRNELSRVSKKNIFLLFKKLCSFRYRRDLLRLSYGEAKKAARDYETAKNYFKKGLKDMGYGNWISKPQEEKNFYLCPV
UniProt Q00013: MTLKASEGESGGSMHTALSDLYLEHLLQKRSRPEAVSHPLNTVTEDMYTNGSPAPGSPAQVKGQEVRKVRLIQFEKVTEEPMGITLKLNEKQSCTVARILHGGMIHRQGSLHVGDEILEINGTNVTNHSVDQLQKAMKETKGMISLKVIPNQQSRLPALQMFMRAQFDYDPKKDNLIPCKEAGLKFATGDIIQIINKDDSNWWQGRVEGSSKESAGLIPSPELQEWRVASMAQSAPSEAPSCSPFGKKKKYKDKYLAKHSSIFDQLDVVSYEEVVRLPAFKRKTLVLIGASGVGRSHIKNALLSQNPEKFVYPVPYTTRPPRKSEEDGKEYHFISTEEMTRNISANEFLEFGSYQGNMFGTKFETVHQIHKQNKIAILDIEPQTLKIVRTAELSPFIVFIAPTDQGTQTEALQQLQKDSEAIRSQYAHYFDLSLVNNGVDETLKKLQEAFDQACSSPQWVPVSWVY
UniProt P83436: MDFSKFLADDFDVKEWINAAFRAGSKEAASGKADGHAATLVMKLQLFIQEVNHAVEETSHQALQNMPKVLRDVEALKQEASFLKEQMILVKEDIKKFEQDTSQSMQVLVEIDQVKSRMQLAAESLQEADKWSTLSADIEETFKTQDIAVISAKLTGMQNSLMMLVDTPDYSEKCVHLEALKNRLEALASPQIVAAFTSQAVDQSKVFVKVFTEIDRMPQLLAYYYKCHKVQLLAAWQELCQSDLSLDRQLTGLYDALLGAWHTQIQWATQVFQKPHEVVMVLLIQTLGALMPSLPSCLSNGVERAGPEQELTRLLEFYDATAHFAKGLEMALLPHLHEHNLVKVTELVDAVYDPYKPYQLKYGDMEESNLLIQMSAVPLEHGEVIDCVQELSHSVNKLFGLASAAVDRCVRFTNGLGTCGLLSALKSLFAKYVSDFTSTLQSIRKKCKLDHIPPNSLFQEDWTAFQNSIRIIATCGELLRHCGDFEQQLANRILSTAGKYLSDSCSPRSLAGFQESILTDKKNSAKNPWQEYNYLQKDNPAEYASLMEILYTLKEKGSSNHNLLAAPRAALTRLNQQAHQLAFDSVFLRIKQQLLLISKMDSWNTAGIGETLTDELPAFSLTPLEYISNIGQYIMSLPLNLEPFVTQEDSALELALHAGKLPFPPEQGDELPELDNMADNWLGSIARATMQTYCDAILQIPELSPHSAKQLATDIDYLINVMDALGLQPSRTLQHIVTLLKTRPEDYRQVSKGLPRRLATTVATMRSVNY
UniProt P60891: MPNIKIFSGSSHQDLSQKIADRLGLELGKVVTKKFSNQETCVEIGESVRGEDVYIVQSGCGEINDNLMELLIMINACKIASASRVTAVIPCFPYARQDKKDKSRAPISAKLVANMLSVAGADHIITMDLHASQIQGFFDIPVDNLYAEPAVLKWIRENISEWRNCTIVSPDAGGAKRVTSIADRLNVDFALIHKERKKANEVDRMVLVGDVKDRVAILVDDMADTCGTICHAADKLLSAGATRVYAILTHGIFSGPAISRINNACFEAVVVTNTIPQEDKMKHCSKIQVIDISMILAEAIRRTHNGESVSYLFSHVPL
UniProt P55347: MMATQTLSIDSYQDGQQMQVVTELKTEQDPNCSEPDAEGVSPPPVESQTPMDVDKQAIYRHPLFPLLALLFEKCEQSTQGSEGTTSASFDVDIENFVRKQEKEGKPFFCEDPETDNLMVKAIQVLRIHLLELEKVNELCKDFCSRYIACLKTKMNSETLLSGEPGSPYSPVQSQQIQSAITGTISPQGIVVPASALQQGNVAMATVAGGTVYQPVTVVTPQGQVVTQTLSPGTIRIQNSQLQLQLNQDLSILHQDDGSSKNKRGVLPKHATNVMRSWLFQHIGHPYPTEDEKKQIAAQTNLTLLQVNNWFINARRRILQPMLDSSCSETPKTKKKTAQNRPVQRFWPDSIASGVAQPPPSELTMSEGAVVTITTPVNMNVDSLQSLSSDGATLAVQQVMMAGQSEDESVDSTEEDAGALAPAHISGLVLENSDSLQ
UniProt P63167, whole entry: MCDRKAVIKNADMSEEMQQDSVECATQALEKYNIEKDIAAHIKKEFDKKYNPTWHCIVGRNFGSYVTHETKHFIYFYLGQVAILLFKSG
UniProt P54920: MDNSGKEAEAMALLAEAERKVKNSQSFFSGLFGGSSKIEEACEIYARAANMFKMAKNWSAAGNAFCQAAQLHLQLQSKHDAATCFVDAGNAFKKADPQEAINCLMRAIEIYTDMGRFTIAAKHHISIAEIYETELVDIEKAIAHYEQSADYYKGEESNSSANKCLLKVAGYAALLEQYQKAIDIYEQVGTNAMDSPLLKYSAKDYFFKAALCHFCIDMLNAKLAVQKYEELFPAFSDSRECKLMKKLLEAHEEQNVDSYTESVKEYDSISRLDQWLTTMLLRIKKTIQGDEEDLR
UniProt P78310: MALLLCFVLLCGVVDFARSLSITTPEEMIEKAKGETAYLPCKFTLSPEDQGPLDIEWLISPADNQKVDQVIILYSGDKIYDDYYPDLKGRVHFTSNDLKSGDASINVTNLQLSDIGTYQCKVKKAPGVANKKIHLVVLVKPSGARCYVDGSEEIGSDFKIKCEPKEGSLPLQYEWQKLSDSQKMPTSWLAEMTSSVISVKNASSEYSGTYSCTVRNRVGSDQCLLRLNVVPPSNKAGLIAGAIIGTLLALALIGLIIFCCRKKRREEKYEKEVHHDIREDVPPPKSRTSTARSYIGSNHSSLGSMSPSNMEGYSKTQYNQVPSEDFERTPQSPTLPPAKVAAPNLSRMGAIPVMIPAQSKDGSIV
UniProt P55197: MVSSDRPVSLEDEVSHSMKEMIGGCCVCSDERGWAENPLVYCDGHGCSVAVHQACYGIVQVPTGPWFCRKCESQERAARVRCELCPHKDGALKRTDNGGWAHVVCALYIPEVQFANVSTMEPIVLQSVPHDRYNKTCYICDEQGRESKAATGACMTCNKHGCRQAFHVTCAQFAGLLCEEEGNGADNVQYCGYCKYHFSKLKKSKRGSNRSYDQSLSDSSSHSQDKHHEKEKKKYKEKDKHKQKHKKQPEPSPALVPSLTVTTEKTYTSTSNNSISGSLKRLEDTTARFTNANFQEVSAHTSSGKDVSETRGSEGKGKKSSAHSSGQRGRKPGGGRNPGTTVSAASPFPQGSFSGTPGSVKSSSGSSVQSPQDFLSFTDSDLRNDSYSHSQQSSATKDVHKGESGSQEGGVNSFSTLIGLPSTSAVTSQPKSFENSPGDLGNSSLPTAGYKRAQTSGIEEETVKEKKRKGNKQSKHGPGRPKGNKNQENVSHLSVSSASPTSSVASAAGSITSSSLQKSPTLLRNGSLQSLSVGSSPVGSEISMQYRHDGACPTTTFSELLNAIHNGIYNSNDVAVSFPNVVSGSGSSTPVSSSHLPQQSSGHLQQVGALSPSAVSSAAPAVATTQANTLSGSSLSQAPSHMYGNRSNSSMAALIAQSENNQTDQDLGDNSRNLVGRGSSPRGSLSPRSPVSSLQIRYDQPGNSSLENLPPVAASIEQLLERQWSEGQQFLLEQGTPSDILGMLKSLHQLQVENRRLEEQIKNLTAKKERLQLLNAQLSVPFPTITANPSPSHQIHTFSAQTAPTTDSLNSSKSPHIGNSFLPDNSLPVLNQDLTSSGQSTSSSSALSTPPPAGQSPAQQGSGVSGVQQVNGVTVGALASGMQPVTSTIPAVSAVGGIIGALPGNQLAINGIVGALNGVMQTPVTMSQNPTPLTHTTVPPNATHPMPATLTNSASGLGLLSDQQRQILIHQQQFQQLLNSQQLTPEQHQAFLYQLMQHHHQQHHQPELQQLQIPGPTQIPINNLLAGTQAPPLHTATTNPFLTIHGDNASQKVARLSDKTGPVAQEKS
UniProt P81605: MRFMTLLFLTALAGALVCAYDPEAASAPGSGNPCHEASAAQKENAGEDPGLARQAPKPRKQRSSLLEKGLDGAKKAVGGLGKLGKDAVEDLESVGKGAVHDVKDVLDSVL

Compound: Nc1ncnc2c1ncn2[C@@H]1O[C@H](COP(=O)(O)OP(=O)(O)OP(=O)(O)O)[C@@H](O)[C@H]1O [adenosine triphosphate]
Assay: NP40-soluble protein abundance relative to vehicle (solubility fold change) (ratio); higher = more soluble protein in presence of ATP
How it was run: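 Values are fold changes against the detergent-processed vehicle, based on vsn-normalised intensities. Jurkat crude lysate was treated at eight concentrations from 0.1 to 10 mM (10 min at room temperature, then 3 min at 37 °C), solubilised with 0.8% NP40 and benzonase, ultracentrifuged and analysed by TMT-labelled LC-MS/MS over three independent experiments.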

Target | NP40-soluble protein abundance (concentration: 1mM) | NP40-soluble protein abundance (concentration: 2mM) | NP40-soluble protein abundance (concentration: 4mM) | NP40-soluble protein abundance (concentration: 6mM) | NP40-soluble protein abundance (concentration: 8mM) | NP40-soluble protein abundance (concentration: 10mM)
UniProt P84085 | 1.04 ± 0.13 | 0.964 ± 0.06 | 0.947 ± 0.022 | 0.918 ± 0.091 | 0.916 ± 0.041 | 0.92 ± 0.015
GMFB (UniProt P60983) | 0.978 ± 0.11 | 0.976 ± 0.049 | 1.01 ± 0.07 | 0.984 ± 0.052 | 0.947 ± 0.045 | 0.939 ± 0.032
UniProt P53805 and related entries | 0.894 ± 0.043 | 0.927 ± 0.1 | 0.885 ± 0.045 | 0.79 ± 0.017 | 0.858 ± 0.1 | 0.935 ± 0.044
CASP9 (UniProt P55211) | 0.992 ± 0.058 | 1.01 ± 0.028 | 1.01 ± 0.011 | 0.945 ± 0.074 | 1 ± 0.051 | 0.972 ± 0.055
UniProt P60842 | 1.08 ± 0.086 | 1.06 ± 0.06 | 1.04 ± 0.045 | 1.03 ± 0.12 | 1.1 ± 0.039 | 1.1 ± 0.048
POLG (UniProt P54098) | 1.01 ± 0.067 | 0.982 ± 0.024 | 1.01 ± 0.069 | 0.969 ± 0.07 | 1.01 ± 0.041 | 0.984 ± 0.025
UniProt P63279 | 0.954 ± 0.1 | 0.984 ± 0.05 | 0.969 ± 0.043 | 0.985 ± 0.065 | 0.967 ± 0.02 | 0.903 ± 0.065
UniProt P62491 | 1.28 ± 0.088 | 1.22 ± 0.062 | 1.15 ± 0.11 | 1.35 ± 0.17 | 1.03 ± 0.096 | 1.14 ± 0.08
UniProt P63272 | 1.002 ± 0.0012 | 0.972 ± 0.011 | 1.02 ± 0.1 | 1.05 ± 0.1 | 0.977 ± 0.071 | 0.933 ± 0.014
YPEL5 (UniProt P62699) | 0.955 ± 0.074 | 0.964 ± 0.046 | 0.914 ± 0.059 | 0.832 ± 0.12 | 0.908 ± 0.12 | 0.952 ± 0.091
P62158 (UniProt P0DP23) | 1.17 ± 0.13 | 1.14 ± 0.049 | 1.19 ± 0.1 | 1.25 ± 0.084 | 1.21 ± 0.033 | 1.14 ± 0.16
UniProt P67936 and related entries | 1.07 ± 0.083 | 1.11 ± 0.15 | 1.21 ± 0.066 | 1.41 ± 0.15 | 1.51 ± 0.3 | 1.06 ± 0.51
RPL7A (UniProt P62424) | 0.954 ± 0.028 | 0.897 ± 0.058 | 0.87 ± 0.057 | 0.83 ± 0.083 | 0.72 ± 0.082 | 0.89 ± 0.075
UniProt P63146 | 1.05 ± 0.062 | 1.03 ± 0.043 | 0.976 ± 0.031 | 1.03 ± 0.093 | 1.04 ± 0.069 | 0.976 ± 0.012
MRPS5 (UniProt P82675) | 1.042 ± 0.0061 | 0.933 ± 0.075 | 0.925 ± 0.062 | 0.916 ± 0.14 | 0.906 ± 0.11 | 0.859 ± 0.098
UniProt P55265 and related entries | 1.1 ± 0.029 | 1.09 ± 0.014 | 1.11 ± 0.014 | 1.156 ± 0.0046 | 1.19 ± 0.02 | 1.21 ± 0.043
METAP1 (UniProt P53582) | 1.14 ± 0.029 | 1.12 ± 0.063 | 1.18 ± 0.066 | 1.26 ± 0.14 | 1.32 ± 0.1 | 1.31 ± 0.075
UniProt Q00013 and related entries | 1.01 ± 0.018 | 1.034 ± 0.0068 | 1.01 ± 0.024 | 1.03 ± 0.038 | 1.1 ± 0.11 | 1.01 ± 0.033
UniProt P60900 and related entries | 0.995 ± 0.035 | 0.924 ± 0.023 | 0.898 ± 0.028 | 0.887 ± 0.038 | 0.954 ± 0.028 | 0.903 ± 0.032
COG7 (UniProt P83436) | 0.977 ± 0.031 | 0.957 ± 0.037 | 0.961 ± 0.05 | 0.972 ± 0.05 | 0.952 ± 0.028 | 0.945 ± 0.036
UniProt P60891 | 1.08 ± 0.13 | 0.992 ± 0.052 | 0.954 ± 0.013 | 0.888 ± 0.029 | 0.985 ± 0.074 | 0.97 ± 0.065
UniProt P55347 and related entries | 0.979 ± 0.07 | 0.989 ± 0.066 | 0.992 ± 0.063 | 1.011 ± 0.0084 | 1 ± 0.074 | 0.946 ± 0.066
UniProt P63167 | 1.08 ± 0.19 | 1.03 ± 0.061 | 0.98 ± 0.053 | 1.11 ± 0.11 | 1.04 ± 0.03 | 0.968 ± 0.074
UniProt P54920 and related entries | 0.987 ± 0.09 | 0.977 ± 0.031 | 0.936 ± 0.034 | 0.955 ± 0.038 | 0.916 ± 0.019 | 0.874 ± 0.063
UniProt P78310 and related entries | 0.944 ± 0.039 | 0.977 ± 0.037 | 0.952 ± 0.061 | 0.977 ± 0.048 | 0.9334 ± 0.0072 | 0.893 ± 0.053
MLLT10 (UniProt P55197) | 1.04 ± 0.1 | 1.11 ± 0.31 | 1.28 ± 0.28 | 1.25 ± 0.39 | 1.29 ± 0.15 | 1.3 ± 0.23
UniProt P62263 | 0.985 ± 0.04 | 0.955 ± 0.055 | 0.911 ± 0.078 | 0.908 ± 0.082 | 0.787 ± 0.065 | 0.899 ± 0.067
UniProt P63220 and related entries | 0.882 ± 0.18 | 0.835 ± 0.19 | 0.77 ± 0.17 | 0.822 ± 0.21 | 0.659 ± 0.13 | 0.691 ± 0.15
DCD (UniProt P81605) | 1.22 ± 0.16 | 1.3 ± 0.23 | 1.04 ± 0.015 | 1.16 ± 0.14 | 0.958 ± 0.19 | 0.892 ± 0.34

Limited to NP40-soluble protein abundance (concentration: 6mM), NP40-soluble protein abundance (concentration: 2mM) and NP40-soluble protein abundance (concentration: 1mM) (two entries from above):

| Target | NP40-soluble protein abundance (concentration: 6mM) | NP40-soluble protein abundance (concentration: 2mM) | NP40-soluble protein abundance (concentration: 1mM) |
| --- | --- | --- | --- |
| P62158 (UniProt P0DP23) | 1.25 ± 0.084 | 1.14 ± 0.049 | 1.17 ± 0.13 |
| UniProt P67936 and related entries | 1.41 ± 0.15 | 1.11 ± 0.15 | 1.07 ± 0.083 |
